Test results published in PubChem BioAssay AID208 (DTP/NCI, 2004).
The list is a part of this screen's results and no random one: it gathers tests that were run many times, whatever their T/C, doses with no T/C, and many T/C values between a quarter and a half above the control. Further doses and runs are listed elsewhere. T/C is the treated group as % of the vehicle group. Schedule codes are those of the source, taken here to give the interval after Q, in days (D) or hours (H), and the number of doses after X. Some T/C values are negative: the treated tumours shrank. Some T/C values carry the count of animals alive at the toxicity check (mostly the fifth day); without a count, all were alive then. Some doses were run more than once; the values are given in rising order. Some doses have a count of surviving animals in place of a T/C: the source holds a T/C of zero for them, seemingly a mark for toxic or unscored doses. Survivors were counted at the toxicity check, usually on the fifth day, unless a day is given; later deaths do not show.

System: HT29 intrarenal xenograft, nude mice, tumor weight change
Experiment: NCI In Vivo Anticancer Drug Screen. Data for tumor model HT29;CX-1 Human Adenocarcinoma (MER+) (intrarenal inoculation) in NU/NU BALB/C (nude) mice
Conditions: T/C endpoint: mean tumor weight change, higher T/C = larger tumour
Method: The antitumor activity of compounds was measured in mice bearing transplantable tumors. Survival or tumor size were measured and the results are expressed as the measurement made in the treated group (T) divided by the measurement made in the vehicle treated control group (C). The tumor model used in this assay is HT29;CX-1 Human Adenocarcinoma (MER+) (intrarenal inoculation) in NU/NU BALB/C (nude) mice

[1] = dose: 600.0 mg/kg/injection, schedule: Q04DX004 (sc), vehicle: saline
[2] = dose: 300.0 mg/kg/injection, schedule: Q04DX004 (sc), vehicle: Klucel (hydroxypropylcellulose) (HPC), evaluated on day 15

In the case of `CS(=O)(=O)OCCCNCCCOS(C)(=O)=O`, the survivor count (dose: 150.0 mg/kg/injection, schedule: Q04DX004 (sc), vehicle: saline) is reported as 0 of 6 on day 15, the survivor count (dose: 300.0 mg/kg/injection, schedule: Q04DX004 (sc), vehicle: saline) is reported as 0 of 6 on day 15 and the survivor count [1] is reported as 0 of 6 on day 15.

For `Oc1c(Cl)cc(Cl)cc1C=NCCSc1ccc(Cl)cc1`, the survivor count (dose: 1200.0 mg/kg/injection, schedule: Q04DX004 (ip), vehicle: Klucel (hydroxypropylcellulose) (HPC)) was 0 of 6 on day 15.

In the case of `C[C@@H]1C[C@H]2[C@@H]3CCC4=CC(=O)C=C[C@]4(C)[C@@]3(F)[C@@H](O)C[C@]2(C)[C@@]1(O)C(=O)CO`, the survivor count (dose: 25.0 mg/kg/injection, schedule: Q01DX010 (sc), vehicle: Klucel (hydroxypropylcellulose) (HPC)) is reported as 0 of 3 on day 11, the survivor count (dose: 50.0 mg/kg/injection, schedule: Q01DX010 (sc), vehicle: Klucel (hydroxypropylcellulose) (HPC)) is reported as 0 of 3 on day 11 and the survivor count (dose: 100.0 mg/kg/injection, schedule: Q01DX010 (sc), vehicle: Klucel (hydroxypropylcellulose) (HPC)) is reported as 0 of 3 on day 11. The survivor count (dose: 200.0 mg/kg/injection, schedule: Q01DX010 (sc), vehicle: Klucel (hydroxypropylcellulose) (HPC)) was 0 of 3 on day 11.

For `Nc1nc(-c2ccccc2)c(Br)c(=O)[nH]1`, the T/C (dose: 1200.0 mg/kg/injection, schedule: Q04DX004 (sc), vehicle: saline with Tween-80, evaluated on day 15) was 129 % of control.

In the case of `C=C(C)C(=O)O[C@H]1CC2=C[C@@H](C[C@@]3(C)O[C@@H]3[C@H]3OC(=O)C(=C)[C@@H]31)OC2=O`, the survivor count (dose: 300.0 mg/kg/injection, schedule: Q04DX004 (sc), vehicle: Klucel (hydroxypropylcellulose) (HPC)) is reported as 3 of 6 on day 15 and the survivor count (dose: 600.0 mg/kg/injection, schedule: Q04DX004 (sc), vehicle: Klucel (hydroxypropylcellulose) (HPC)) is reported as 2 of 6 on day 15.

In the case of `Cc1ccoc1`, the T/C (dose: 400.0 mg/kg/injection, schedule: Q01DX010 (ip), vehicle: saline with Tween-80, evaluated on day 11) is reported as 134 % of control [5 of 6 alive on day 11].

For `CO[C@H]1C[C@](C)(O)Cc2cc3c(c(O)c21)C(=O)c1c(O)cc2c(c1C3=O)O[C@@H]1O[C@@]2(C)[C@H](O)[C@@H](N(C)C)[C@@H]1O`, the T/C (dose: 3.13 mg/kg/injection, schedule: Q01DX010 (sc), vehicle: other, evaluated on day 11) was 141 % of control and the survivor count (dose: 25.0 mg/kg/injection, schedule: Q01DX010 (sc), vehicle: other) was 0 of 3 on day 11.

With `CCNC=O` the survivor count (dose: 1200.0 mg/kg/injection, schedule: Q01DX010 (ip), vehicle: suspension in saline) was 1 of 6 on day 11.

For `C1CC[N-]CC1.[Cl][Pt+2][Cl].[NH-]C1CC1`, the survivor count (dose: 100.0 mg/kg/injection, schedule: Q04DX004 (sc), vehicle: water) was 3 of 5 on day 15 and the survivor count (dose: 200.0 mg/kg/injection, schedule: Q04DX004 (sc), vehicle: water) was 0 of 5 on day 15.

With `Nc1ncnc2c1ccn2C1OC(CO)C(O)C1O` (configuration not stated) the T/C (dose: 1.0 mg/kg/injection, schedule: Q01DX010 (sc), vehicle: Klucel (hydroxypropylcellulose) (HPC), evaluated on day 11) was 143 % of control and the survivor count (dose: 8.0 mg/kg/injection, schedule: Q01DX010 (sc), vehicle: Klucel (hydroxypropylcellulose) (HPC)) was 0 of 3 on day 11.

For `CO[C@@]12[C@H](COC(N)=O)C3=C(C(=O)C(C)=C(N)C3=O)N1C[C@@H]1N[C@@H]12`, the T/C (dose: 2.0 mg/kg/injection, schedule: Q04DX004 (ip), vehicle: saline, evaluated on day 15) was -36, 6, 15, 22 % of control, the T/C (dose: 3.0 mg/kg/injection, schedule: Q04DX004 (ip), vehicle: saline, evaluated on day 15) was -84, -46, 3 % of control and the T/C (dose: 4.5 mg/kg/injection, schedule: Q04DX004 (ip), vehicle: saline, evaluated on day 15) was -90 [3 of 4 alive on day 15], -78, -70 [5 of 6 alive on day 15], -2 % of control. The survivor count (dose: 6.0 mg/kg/injection, schedule: Q04DX004 (sc), vehicle: saline) was 1 of 6 on day 15 and the survivor count (dose: 12.0 mg/kg/injection, schedule: Q04DX004 (sc), vehicle: saline) was 0 of 3 on day 15 and 0 of 6 on day 15.

For `CCC1=C[C@H]2CN(CCc3c([nH]c4ccccc34)[C@@](C(=O)OC)(c3cc4c(cc3OC)N(C)[C@H]3[C@@](O)(C(=O)OC)[C@H](OC(C)=O)[C@]5(CC)C=CCN6CC[C@]43[C@@H]65)C2)C1`, the T/C (dose: 3.0 mg/kg/injection, schedule: Q04DX004 (sc), vehicle: water, evaluated on day 15) was 136 % of control and the survivor count (dose: 24.0 mg/kg/injection, schedule: Q04DX004 (sc), vehicle: water) was 2 of 6 on day 15.

With `C=C(C)[C@@H]1CCc2c(O)c(O)c(=O)cc(C)c2C1` the T/C (dose: 150.0 mg/kg/injection, schedule: Q04DX004 (sc), vehicle: saline, evaluated on day 15) was 133 % of control, the T/C (dose: 300.0 mg/kg/injection, schedule: Q04DX004 (sc), vehicle: saline, evaluated on day 15) was 133 % of control and the T/C (dose: 600.0 mg/kg/injection, schedule: Q04DX004 (sc), vehicle: saline, evaluated on day 15) was 131 % of control.

For `CO[C@H](/C(C)=C/C=C/C(C)=C/c1coc(C)n1)[C@H](C)[C@H]1C[C@@H](O)[C@@]2(C)O[C@H]2/C=C/[C@@H](C)[C@@H]2C[C@@H](CC(=O)O2)C[C@H]2O[C@@H]2C(=O)O1`, the survivor count (dose: 1.0 mg/kg/injection, schedule: Q04DX004 (sc), vehicle: Klucel (hydroxypropylcellulose) (HPC)) was 1 of 6 on day 15.

`CCN1C=C/C(=C\C=C/c2cc[n+](CC)c3ccccc23)c2ccccc21` was tested, and the T/C (dose: 0.25 mg/kg/injection, schedule: Q01DX010 (sc), vehicle: saline, evaluated on day 11) was 142 % of control, the T/C (dose: 1.0 mg/kg/injection, schedule: Q01DX010 (sc), vehicle: saline, evaluated on day 11) was 132 % of control [2 of 2 alive on day 11] and the survivor count (dose: 2.0 mg/kg/injection, schedule: Q01DX010 (sc), vehicle: saline) was 1 of 3 on day 11.

In the case of `O=CC(O)C(O)C(O)C(O)CO` (configuration not stated), the T/C (dose: 300.0 mg/kg/injection, schedule: Q04DX004 (ip), vehicle: saline, evaluated on day 15) is reported as 137 % of control and the T/C (dose: 1200.0 mg/kg/injection, schedule: Q04DX004 (ip), vehicle: saline, evaluated on day 15) is reported as 139 % of control.

For `CC[C@@]1(O)C(=O)OCc2c1cc1n(c2=O)Cc2cc3ccccc3nc2-1`, the T/C (dose: 1.5 mg/kg/injection, schedule: Q04DX004 (sc), vehicle: saline with Tween-80, evaluated on day 15) was 148 % of control, the survivor count (dose: 32.0 mg/kg/injection, schedule: Q04DX004 (sc), vehicle: saline with Tween-80) was 0 of 6 on day 15 and the survivor count (dose: 48.0 mg/kg/injection, schedule: Q04DX004 (sc), vehicle: saline with Tween-80) was 0 of 6 on day 15. The survivor count (dose: 64.0 mg/kg/injection, schedule: Q04DX004 (sc), vehicle: saline with Tween-80) was 3 of 6 on day 15.

With `O=CC(NC(=O)N(CCCl)N=O)C(O)C(O)C(O)CO` (configuration not stated) the survivor count (dose: 12.0 mg/kg/injection, schedule: Q01DX010 (sc), vehicle: Klucel (hydroxypropylcellulose) (HPC)) was 0 of 3 on day 11.

`O=C1N[C@H]2[C@H](CS[C@H]2CCCCC(=O)N(CCP(c2ccccc2)c2ccccc2)CCP(c2ccccc2)c2ccccc2)N1` was tested, and the T/C [2] was 126 % of control and the T/C (dose: 1200.0 mg/kg/injection, schedule: Q04DX004 (sc), vehicle: Klucel (hydroxypropylcellulose) (HPC), evaluated on day 15) was 127 % of control [5 of 6 alive on day 15].

In the case of `Oc1ccc(CCl)c2cccnc12`, the survivor count [1] is reported as 2 of 6 on day 15.

For `COc1ccc2c(ccc3oc([N+](=O)[O-])cc32)c1`, the T/C (dose: 75.0 mg/kg/injection, schedule: Q04DX004 (sc), vehicle: Klucel (hydroxypropylcellulose) (HPC), evaluated on day 15) was 147 % of control and the T/C [2] was 127 % of control.

In the case of `COc1cc(Cc2nccc3cc(OC)c(OC)cc23)c(C(C)=O)c(OC)c1`, the T/C (dose: 40.0 mg/kg/injection, schedule: Q01DX010 (sc), vehicle: saline, evaluated on day 11) is reported as 127 % of control, the survivor count (dose: 40.0 mg/kg/injection, schedule: Q01DX010 (sc), vehicle: saline) is reported as 2 of 5 on day 11 and the survivor count (dose: 80.0 mg/kg/injection, schedule: Q01DX010 (sc), vehicle: saline) is reported as 1 of 6 on day 11. For the same compound, the survivor count (dose: 160.0 mg/kg/injection, schedule: Q01DX010 (sc), vehicle: saline) was 0 of 6 on day 11 and 2 of 6 on day 11 and the survivor count (dose: 320.0 mg/kg/injection, schedule: Q01DX010 (sc), vehicle: saline) was 0 of 6 on day 11.

With `COC1/C=C/C=C(/C)Cc2cc(O)c(Cl)c(c2)N(C)C(=O)CC(OC(=O)C(C)C)C2(C)OC2C(C)C2CC1(O)NC(=O)O2` (configuration not stated) the survivor count (dose: 16.0 mg/kg/injection, schedule: Q04DX004 (sc), vehicle: saline + alcohol) was 2 of 6 on day 15.

With `COc1cc(C)c2c(c1C=O)Oc1c(c(C)c(O)c3c1C(O)OC3=O)OC2=O` (configuration not stated) the survivor count (dose: 200.0 mg/kg/injection, schedule: Q01DX010 (sc), vehicle: saline) was 1 of 3 on day 11.
